Reference: publication PMC4299599, “Quantification of cytosolic interactions identifies Ede1 oligomers as key organizers of endocytosis” (Molecular Systems Biology, 2014)
Results are given in words; binding and its absence hold for the method and conditions named.

Assays:
Assay in all cases: condition: 1000 nM (only Kdeff-values < 1000 nM are shown); fluorescence cross-correlation spectroscopy (FCCS); in the cytoplasm of living yeast cells; first-named protein green (3myeGFP or 1myeGFP; eGFP for Don1), second red (3mCherry); self-interaction in diploid strains with one allele of each colour; apparent or effective KD (Kdeff) from single-cell measurements; only Kdeff values < 1000 nM are shown; values for …
Conditions in all cases: remark: other sources report otherwise
[1] = molecular target: T1, Ede1 (S. cerevisiae), P34216
T1 chain: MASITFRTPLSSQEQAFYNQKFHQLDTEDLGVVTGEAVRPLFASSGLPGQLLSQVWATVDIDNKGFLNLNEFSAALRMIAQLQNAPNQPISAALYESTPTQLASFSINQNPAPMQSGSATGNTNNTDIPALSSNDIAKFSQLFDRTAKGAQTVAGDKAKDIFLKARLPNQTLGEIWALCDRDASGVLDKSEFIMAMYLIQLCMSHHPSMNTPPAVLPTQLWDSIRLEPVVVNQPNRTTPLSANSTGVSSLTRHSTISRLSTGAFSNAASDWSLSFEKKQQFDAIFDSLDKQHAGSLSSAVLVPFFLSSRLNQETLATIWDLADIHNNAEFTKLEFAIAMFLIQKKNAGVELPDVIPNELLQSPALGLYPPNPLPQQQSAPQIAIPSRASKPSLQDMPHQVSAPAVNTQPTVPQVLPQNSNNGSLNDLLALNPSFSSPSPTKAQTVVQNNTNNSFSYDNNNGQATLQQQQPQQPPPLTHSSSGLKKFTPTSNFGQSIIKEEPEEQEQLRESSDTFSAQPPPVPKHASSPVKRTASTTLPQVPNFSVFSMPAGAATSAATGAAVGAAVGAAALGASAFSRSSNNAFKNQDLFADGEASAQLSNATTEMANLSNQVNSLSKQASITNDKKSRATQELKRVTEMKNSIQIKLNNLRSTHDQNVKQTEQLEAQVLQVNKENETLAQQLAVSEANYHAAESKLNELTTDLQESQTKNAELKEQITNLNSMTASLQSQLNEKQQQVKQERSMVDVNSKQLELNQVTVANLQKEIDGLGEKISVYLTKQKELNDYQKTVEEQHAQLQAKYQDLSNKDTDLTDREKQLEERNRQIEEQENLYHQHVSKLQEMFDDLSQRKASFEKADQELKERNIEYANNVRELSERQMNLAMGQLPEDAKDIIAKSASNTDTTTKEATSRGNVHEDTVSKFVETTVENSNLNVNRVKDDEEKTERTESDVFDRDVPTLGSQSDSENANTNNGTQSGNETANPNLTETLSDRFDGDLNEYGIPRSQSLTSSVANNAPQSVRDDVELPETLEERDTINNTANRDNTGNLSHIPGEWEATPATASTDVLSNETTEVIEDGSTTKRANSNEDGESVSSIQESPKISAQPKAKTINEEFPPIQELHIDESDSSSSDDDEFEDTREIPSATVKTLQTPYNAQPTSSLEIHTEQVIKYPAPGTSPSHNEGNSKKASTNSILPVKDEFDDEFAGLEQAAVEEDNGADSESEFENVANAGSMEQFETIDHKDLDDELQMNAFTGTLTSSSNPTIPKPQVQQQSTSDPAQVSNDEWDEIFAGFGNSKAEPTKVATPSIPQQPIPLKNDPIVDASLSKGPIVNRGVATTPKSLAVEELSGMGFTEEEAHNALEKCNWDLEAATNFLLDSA

[2] = molecular target: T2, Pan1 (S. cerevisiae), P32521
T2 chain: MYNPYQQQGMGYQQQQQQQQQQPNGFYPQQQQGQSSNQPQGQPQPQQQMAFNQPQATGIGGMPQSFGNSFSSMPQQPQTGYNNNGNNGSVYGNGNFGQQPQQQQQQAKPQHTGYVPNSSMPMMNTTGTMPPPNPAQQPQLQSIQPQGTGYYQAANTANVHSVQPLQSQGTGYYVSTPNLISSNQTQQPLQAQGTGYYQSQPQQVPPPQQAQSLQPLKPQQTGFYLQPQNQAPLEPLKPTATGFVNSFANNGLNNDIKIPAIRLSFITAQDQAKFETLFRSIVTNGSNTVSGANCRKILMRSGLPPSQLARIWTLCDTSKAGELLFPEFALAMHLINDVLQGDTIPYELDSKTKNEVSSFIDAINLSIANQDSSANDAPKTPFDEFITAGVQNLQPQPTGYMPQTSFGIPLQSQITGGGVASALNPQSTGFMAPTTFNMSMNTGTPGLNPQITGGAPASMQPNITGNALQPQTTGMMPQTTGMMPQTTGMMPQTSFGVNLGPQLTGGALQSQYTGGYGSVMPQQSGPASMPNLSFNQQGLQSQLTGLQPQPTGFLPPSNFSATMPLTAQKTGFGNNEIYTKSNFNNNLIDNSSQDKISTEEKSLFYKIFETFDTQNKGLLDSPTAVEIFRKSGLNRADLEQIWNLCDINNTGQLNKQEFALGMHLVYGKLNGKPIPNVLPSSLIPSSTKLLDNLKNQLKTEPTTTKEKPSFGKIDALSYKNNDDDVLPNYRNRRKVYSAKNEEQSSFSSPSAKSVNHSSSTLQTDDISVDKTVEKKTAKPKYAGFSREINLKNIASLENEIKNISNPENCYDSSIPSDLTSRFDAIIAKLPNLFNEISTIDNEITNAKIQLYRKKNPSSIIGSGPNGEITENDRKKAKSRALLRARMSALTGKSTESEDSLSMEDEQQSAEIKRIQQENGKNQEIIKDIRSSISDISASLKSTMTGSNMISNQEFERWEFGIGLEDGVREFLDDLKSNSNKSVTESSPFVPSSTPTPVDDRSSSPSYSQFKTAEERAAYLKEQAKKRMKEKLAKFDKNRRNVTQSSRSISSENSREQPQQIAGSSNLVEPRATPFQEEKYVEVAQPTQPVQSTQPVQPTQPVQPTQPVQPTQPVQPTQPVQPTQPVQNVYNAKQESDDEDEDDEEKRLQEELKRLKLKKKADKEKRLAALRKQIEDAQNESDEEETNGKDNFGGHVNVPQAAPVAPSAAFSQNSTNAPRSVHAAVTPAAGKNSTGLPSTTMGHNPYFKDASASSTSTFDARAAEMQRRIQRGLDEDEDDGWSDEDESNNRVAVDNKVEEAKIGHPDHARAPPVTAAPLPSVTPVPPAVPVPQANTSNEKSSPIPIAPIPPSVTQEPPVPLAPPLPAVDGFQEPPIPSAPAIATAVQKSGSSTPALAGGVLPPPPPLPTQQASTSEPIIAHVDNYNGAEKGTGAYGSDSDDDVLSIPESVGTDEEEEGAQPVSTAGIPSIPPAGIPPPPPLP

[3] = molecular target: T3, End3 (S. cerevisiae), P39013
T3 chain: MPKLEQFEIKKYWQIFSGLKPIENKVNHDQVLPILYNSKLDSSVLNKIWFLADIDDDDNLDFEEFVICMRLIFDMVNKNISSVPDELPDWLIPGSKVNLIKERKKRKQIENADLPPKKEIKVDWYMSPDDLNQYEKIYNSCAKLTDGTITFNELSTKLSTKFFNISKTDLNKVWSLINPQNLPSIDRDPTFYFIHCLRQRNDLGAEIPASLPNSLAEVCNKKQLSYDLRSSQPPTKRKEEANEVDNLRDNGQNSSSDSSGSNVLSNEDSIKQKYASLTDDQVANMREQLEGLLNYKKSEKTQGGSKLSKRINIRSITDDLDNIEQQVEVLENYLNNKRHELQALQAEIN

B1: Apl1, P27351 1-700 (protein)
chain: MSDQKVFARYKANEIVTDLQHFGVKKFKSNITRRKNALRKIIANLVLGNYGEMSVLFSELLKFWQIEDDLEVKRICHEYIRVIGALKPQQAREALPFIMDDFKSRDEKLQIMALRTLVLVPVKELSDQAFDCIISLVNHKSPPEQVTRTAIYALLDLDEIDHERVLGLSSILHDIVKAQSSSPEVIVAALHTLYSIHEKNANMEPFRIPLELAFDMLELLPELNEWNKATVLEVLTTSVVPQHYLDTHEMIELALPYLQQVNTYVVLNSLKFIMYLLNYVDVIKETLAEKLSNSVIALLDKPPELQFLVLRNVILLLLSRESSLLRLDISYFFIEYNDPIYIKDTKLECLYLLANKETLPRILEELEQYATDIDIQMSRKSVRAIGNLAVKLDEDSVHDCVAVLLDLLEFGVDYVVQEIISVFRNILRKYPNNFKANVTELVKHTEVVQEPESKNAMIWIITQYSDVIPNYLELFRVFSSNMFSETLEVQFSILNSAIKFFIRSPTKETEELCMDLLKGCIDHENNPDLRDKTLMYWRLLSLTKTSRISNAITFESLKSVLDGELPLIEMNTKLDPTVLEELELNIGTIVSIYLKPVSHIFRLNKTKLLPQSPILNPNKDLLPVVGNSFPPTGANRDRQNSESQSSTKSRKTAMMDDYDKPAEKINQLKGKRKSSSNNPSKLSRKPSTLLRKLSMKRPFS
- binding [1]: no binding

B2: Yap1801, P38856 1-637 (protein)
chain: MTTYFKLVKGATKIKSAPPKQKYLDPILLGTSNEEDFYEIVKGLDSRINDTAWTIVYKSLLVVHLMIREGSKDVALRYYSRNLEFFDIENIRGSNGSASGDMRALDRYDNYLKVRCREFGKIKKDYVRDGYRTLKLNSGNYGSSRNKQHSINIALDHVESLEVQIQALIKNKYTQYDLSNELIIFGFKLLIQDLLALYNALNEGIITLLESFFELSHHNAERTLDLYKTFVDLTEHVVRYLKSGKTAGLKIPVIKHITTKLVRSLEEHLIEDDKTHNTFVPVDSSQGSAGAVVAKSTAQERLEQIREQKRILEAQLKNEQVAISPALTTVTAAQSYNPFGTDSSMHTNIPMAVANQTQQIANNPFVSQTQPQVMNTPTAHTEPANLNVPEYAAVQHTVNFNPVQDAGVSAQQTGYYSINNHLTPTFTGAGFGGYSVSQDTTAASNQQVSHSQTGSNNPFALHNAATIATGNPAHENVLNNPFSRPNFDEQNTNMPLQQQIISNPFQNQTYNQQQFQQQKMPLSSINSVMTTPTSMQGSMNIPQRFDKMEFQAHYTQNHLQQQQQQQQQQQQQQQQQPQQGYYVPATAGANPVTNITGTVQPQNFPFYPQQQPQPEQSQTQQPVLGNQYANNLNLIDM
- binding [2]: no binding

B3: Yap1802, P53309 1-568 (protein)
chain: MSSLYTKLVKGATKIKMAPPKQKYVDPILSGTSSARGLQEITHALDIRLSDTAWTIVYKALIVLHLMIQQGEKDVTLRHYSHNLDVFQLRKISHTTKWSSNDMRALQRYDEYLKTRCEEYGRLGMDHLRDNYSSLKLGSKNQLSMDEELDHVESLEIQINALIRNKYSVSDLENHLLLYAFQLLVQDLLGLYNALNEGVITLLESFFELSIEHAKRTLDLYKDFVDMTEYVVRYLKIGKAVGLKIPVIKHITTKLINSLEEHLREETKRQRGEPSEPQQDRKPSTAISSTSSHNNNSNDKNKSIAQKKLEQIREQKRLLEQQLQNQQLLISPTVPQDAYNPFGSQQQDLNNDTFSFEPTQPQMTAQVPQPTANPFLIPQQQQQALQLTSASTMPQPSEIQITPNLNNQQTGMYASNLQYTPNFTGSGFGGYTTTENNAIMTGTLDPTKTGSNNPFSLENIAREQQQQNFQNSPNPFTLQQAQTTPILAHSQTGNPFQAQNVVTSPMGTYMTNPVAGQLQYASTGAQQQPQMMQGQQTGYVMVPTAFVPINQQQQQQQHQQENPNLIDI
- binding [3]: no binding
